Drawing on patent publication US20130230528A1 (Novartis, published 2013), this text covers binding for two molecules.

Chains of the proteins cited; added tags and fusions are not shown. Lines headed by an entry give the natural chain unless they say otherwise; changes in a name come on top.
UniProt P25942: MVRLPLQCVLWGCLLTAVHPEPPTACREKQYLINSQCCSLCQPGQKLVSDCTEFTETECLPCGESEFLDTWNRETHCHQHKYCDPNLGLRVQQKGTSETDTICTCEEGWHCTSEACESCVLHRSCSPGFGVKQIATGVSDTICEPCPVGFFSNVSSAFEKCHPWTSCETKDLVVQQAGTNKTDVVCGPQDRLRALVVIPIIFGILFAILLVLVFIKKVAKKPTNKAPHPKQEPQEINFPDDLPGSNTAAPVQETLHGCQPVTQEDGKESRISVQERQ

No constants are given. Whether binding was seen depends on the method and setting. Some binding calls cover weakened binding; strength is not graded here.

For this assay, the target named is human CD40, soluble / recombinant (ELISA and Biacore) (human) (UniProt P25942). Kind of assay: ELISA-type assays on soluble CD40.

B1: CHIR-5.9 fully human anti-CD40 monoclonal antibody (antibody, V domains shown)
VH: EVQLVQSGAEVKKPGESLKISCKGSGYSFTSYWIGWVRQMPGKGLEWMGIIYPGDSDTRYSPSFQGQVTISADKSISTAYLQWSSLKASDTAMYYCARGTAAGRDYYYYYGMDVWGQGTTVTVSS
VL: AIVMTQPPLSSPVTLGQPASISCRSSQSLVHSDGNTYLNWLQQRPGQPPRLLIYKFFRRLSGVPDRFSGSGAGTDFTLKISRVEAEDVGVYYCMQVTQFPHTFGQGTRLEIKR
notes: Human IgG1 kappa from XenoMouse hybridoma; also called mAb CHIR-5.9; 131.2F8.5.9
Turning to B1, the binding entry is on record as “binds”.

B2: CHIR-12.12 fully human anti-CD40 monoclonal antibody (antibody, human IgG1, kappa, V domains shown)
VH: QVQLVESGGGVVQPGRSLRLSCAASGFTFSSYGMHWVRQAPGKGLEWVAVISYEESNRYHADSVKGRFTISRDNSKITLYLQMNSLRTEDTAVYYCARDGGIAAPGPDYWGQGTLVTVSS
VL: DIVMTQSPLSLTVTPGEPASISCRSSQSLLYSNGYNYLDWYLQKPGQSPQVLISLGSNRASGVPDRFSGSGSGTDFTLKISRVEAEDVGVYYCMQARQTPFTFGPGTKVDIRR
notes: Human IgG1 kappa from XenoMouse hybridoma; also called 153.8E2.D10.D6.12.12
B2: the binding entry was “binds”.
